Screen size: about 59,000 compounds; about 6,500 (11%) were called active. This list was built around the results that the source calls inconclusive (neither active nor inactive); the mix of calls is not that of the screen. Cut-off read from the data, not from the text of the source: active = max dye-equivalent concentration above about 10 nM; inconclusive = mostly about 1.1 nM to 9.6 nM; inactive = weaker than that.
assay: qHTS Assay for Spectroscopic Profiling in A350 Spectral Region; conditions: Compound autofluorescence, 340/450 nm, Alexa 350 dye-equivalents; stronger effect = higher value

Row | SMILES | max dye-equivalent concentration
1 | COc1ccccc1CNc1ncnc2ccc(-c3ccoc3)cc12 | inconclusive: 1.3 nM
2 | CSc1nnc([C@@H](NC(=O)OC(C)(C)C)C(C)C)o1 | inconclusive: 2.8 nM
3 | Cc1noc(C)c1-c1nc(Nc2ccncc2)c2ccccc2n1 | inactive
4 | O=C1C2CCCN2C(c2ccccc2)N1c1nccs1 (stereo not drawn) | inactive
5 | Cn1cc(-c2nc3cnc(N4CCNCC4)nc3n(CCc3ccccc3)c2=O)c2ccccc21 | inactive
6 | CCOC(=O)c1[nH]c(C)c(C(=O)NCCCN2CCOCC2)c1C | inactive
7 | CCCCn1c(=O)n(C)c(=O)c2c3c(sc21)COC(C)(C)C3 | active: 24 nM
8 | Cc1cc2nc(-c3ccc(SCC(=O)N4CCOCC4)nc3)[nH]c2cc1C | active: 24 nM
9 | COc1ccc(-c2nn3c(-c4ccccn4)nnc3s2)cc1OC | inconclusive: 9.1 nM
10 | CCOC(=O)c1[nH]c(C)c(/C(O)=C2\C(=O)C(=O)N(CCCN(C)C)C2c2cccnc2)c1C (stereo not drawn) | inconclusive: 1.6 nM
11 | N#CC(C(=O)OCc1ccccc1)c1nc2ccccc2nc1N1CCOCC1 (stereo not drawn) | inconclusive: 2.2 nM
12 | CCOc1ccc(-c2nnn(CC(=O)Nc3cc(OC)ccc3OC)n2)cc1OCC | inconclusive: 1.6 nM
13 | Cc1cc(NC(=O)CSc2ccc3nnc(-c4ccccc4)n3n2)no1 | active: 11 nM
14 | C=CCOC(=O)Nc1c(C(=O)OC)[nH]c2ccccc12 | inconclusive: 2.1 nM
15 | O=C(O)c1cc(NCc2cccs2)ccc1N1CCOCC1 | inconclusive: 3.6 nM
16 | Cn1c(SCC(=O)NCc2ccco2)nnc1-c1cccs1 | active: 120 nM
17 | Cc1nc2ccc(F)cc2cc1C(=O)NC(C)C | inactive
18 | Cc1ccn(S(=O)(=O)c2ccc(C(C)(C)C)cc2)n1 | inactive
19 | COc1ccc2c(c1)c(=O)cc(C)n2CC(=O)NCc1ccco1 | active: 5200 nM
20 | CCCn1c(=C(C#N)C#N)s/c(=C2\C=Cc3ccccc3N2CC)c1=O | inconclusive: 2 nM
21 | CC(=O)c1c(C)nc(-c2ccc(Cl)cc2Cl)n1O | inactive
22 | Cc1cc(C)n2cc(CSc3nnc(N)s3)nc2n1 | inactive
23 | Cc1ccc(S(=O)(=O)N2CCCCC2C(=O)NCc2ccco2)cc1 (stereo not drawn) | inconclusive: 1.2 nM
24 | CC(=NC1CCN(Cc2ccccc2)CC1)c1c(O)[nH]c(=O)[nH]c1=O | inactive

Row | SMILES | max dye-equivalent concentration
25 | CN(C)c1ncc2ncc(=O)n(CCC#N)c2n1 | inconclusive: 5.8 nM
26 | Cc1cc2c(=O)n(CC(=O)NCC(=O)N3CCN(Cc4ccccc4)CC3)cnc2s1 | active: 25 nM
27 | CN1CCC(N(C)C(=O)c2ccccc2Nc2ccc(SC(F)F)cc2)CC1 | inconclusive: 3.6 nM
28 | NS(=O)(=O)c1ccc(CCNC(=O)NC2(C(F)(F)F)Oc3ccccc3O2)cc1 | inconclusive: 2 nM
29 | COc1ccc(N2CCN(CCNC(=O)c3c(C)cc(=O)oc3C)CC2)cc1 | inconclusive: 2.9 nM
30 | O=C(O)C1[C@H]2C(=O)N(Cc3cccs3)C[C@]23C=C[C@H]1O3 (stereo partly drawn) | inconclusive: 1.2 nM
31 | Cc1ncc(CC(=O)n2cc(C(=O)c3cc(Cl)ccc3O)cn2)s1 | inconclusive: 6.1 nM
32 | CCOc1ccccc1CNC(=O)C1CCN(c2nc3ccccc3o2)CC1 | inconclusive: 1.7 nM
33 | CN(C)c1ncc2nc(-c3ccc(F)cc3)c(=O)n(Cc3ccc(F)cc3)c2n1 | inconclusive: 5.9 nM
34 | c1ccc(-c2nnc3sc(-c4cc5ccccc5o4)nn23)cc1 | inconclusive: 2.7 nM
35 | CCOC(=O)N1CCC(n2c(SCC(=O)NCCC3=CCCCC3)nc3ccccc3c2=O)CC1 | inconclusive: 1.3 nM
36 | Cn1c(/C(C#N)=C(\O)COc2ccc3ccccc3c2)nc2ccccc21 | inconclusive: 1.1 nM
37 | CC(C)c1ccc(NC(=O)COC(=O)C2=COCCO2)cc1 | inconclusive: 1.5 nM
38 | COC(=O)c1[nH]c2ccc(C)cc2c1NC(=O)CN1CCCC(C)(C)C1 | inconclusive: 2.3 nM
39 | CN1CCN(c2nc3c(c(=O)n(C)c(=O)n3C)n2Cc2cccc3ccccc23)CC1 | active: 15 nM
40 | COc1cc(OC)c(OC)cc1CN1CCCC(C(=O)N2CCCCC2)C1 (stereo not drawn) | inconclusive: 1.4 nM
41 | Cc1cccc(-n2nc3c(c2NC(=O)c2ccc(Br)o2)CSC3)c1 | inactive
42 | Cc1ccc(C2C(C#N)=C(N)SC(N)=C2C#N)c(C)c1 | inconclusive: 4.2 nM
43 | O=c1c(-c2cc(F)cc(F)c2)nc2cncnc2n1-c1ccccc1 | inconclusive: 2.4 nM
44 | Cc1ccc2nc(CC(=O)c3ccc4ccccc4c3)c(=O)[nH]c2c1 | inactive
45 | Cc1cccc(-n2c(O)c(C=Nc3ccc4c(c3)OCO4)c3ccccc3c2=O)n1 | inactive
46 | C/C(=C\C(=O)c1ccc(C)o1)Nc1ccc2c(c1)OCO2 | inactive
47 | CC1(C)Cc2c(c(-c3ccco3)[nH]c(=O)c2C#N)CO1 | active: 68 nM
48 | Cc1c(C(=O)NCCC2=CCCCC2)oc2ccc(S(=O)(=O)N3CCOCC3)cc12 | inactive

A draw from above in order of molar mass, smallest number first.
Row | SMILES | max dye-equivalent concentration
37 | CC(C)c1ccc(NC(=O)COC(=O)C2=COCCO2)cc1 | inconclusive: 1.5 nM
29 | COc1ccc(N2CCN(CCNC(=O)c3c(C)cc(=O)oc3C)CC2)cc1 | inconclusive: 2.9 nM
41 | Cc1cccc(-n2nc3c(c2NC(=O)c2ccc(Br)o2)CSC3)c1 | inactive
28 | NS(=O)(=O)c1ccc(CCNC(=O)NC2(C(F)(F)F)Oc3ccccc3O2)cc1 | inconclusive: 2 nM

More entries.

Row | SMILES | max dye-equivalent concentration
49 | CCn1c(CSc2nnc(-c3cccnc3)n2-c2ccccc2C)nc2cc(C(=O)O)ccc21 | inconclusive: 2.7 nM
50 | CCCCc1cc2ccccc2c(OCCN(C)C)n1 | inactive
51 | CCN1CCc2nc(NC(=O)c3ccc4c(c3)OCCO4)sc2C1 | active: 19 nM
52 | Cc1cc(NC(=O)CCCC(=O)NCc2cccs2)no1 | active: 620 nM
53 | CC(NC(=O)NCCCC(=O)O)(C(F)(F)F)C(F)(F)F | active: 24 nM
54 | c1ccc(-c2noc(CSc3nnc(Cc4cccs4)n3-c3ccccc3)n2)cc1 | inconclusive: 5 nM
55 | CN(Cc1nc2ccccc2n1C)S(C)(=O)=O | inactive
56 | O=C(O)[C@H](Cc1ccc(O)c([N+](=O)[O-])c1)N1C(=O)c2ccccc2C1=O | inactive
57 | CC(=O)N1CCC2(CC1)CCN(c1ccncc1)CC2 | inactive
58 | O=S(=O)(Cc1ccccc1)/C1=C(\N2CCOCC2)CCCCCC1 | inconclusive: 3.9 nM
59 | c1ccc(Nc2c3c(nc4ncnn24)CCC3)cc1 | inactive
60 | O=c1[nH]c(=O)n(C2CCCCCC2)c(O)c1C=NCc1ccc(F)cc1 | active: 21 nM
61 | O=C(OCCCN1CCCCC1)c1ccc(O)cc1 | inconclusive: 1.3 nM
62 | CCn1cc(C(=O)N2CC=C(c3ccccc3)CC2)c(=O)c2ccc(C)nc21 | inconclusive: 1.3 nM
63 | O=C(NCc1ccco1)c1ccc2nc3sc4c(c3c(=O)n2c1)CCCC4 | active: 100 nM
64 | Cc1cccc2cc3ccc4ccccc4c3cc12 | inconclusive: 8.4 nM
65 | COc1cccc(-c2cc(NCc3cccnc3)ncn2)c1 | inactive
66 | CCNc1ncc2nc(C)c(=O)n(Cc3cccc(OC)c3)c2n1 | active: 37 nM
67 | Cc1cc(=O)[nH]c2c(C)c(Cl)ccc12 | inactive
68 | OC1CNCc2cc3c(cc21)OCCO3 (stereo not drawn) | inconclusive: 7.8 nM
69 | CC1CCCC(NC(=O)COC(=O)Cc2cn3ccsc3n2)C1C (stereo not drawn) | inconclusive: 6.2 nM
70 | CCOc1ccc(N(Cc2cc3cc(OC)ccc3[nH]c2=O)S(C)(=O)=O)cc1 | inactive
71 | Cc1cccc(N2CCN(C(=O)CCCn3c(=S)[nH]c4cc5c(cc4c3=O)OCO5)CC2)c1C | inactive
72 | COC(=O)Nc1ccc(S(=O)(=O)N2c3ccccc3CCC2C)cc1 (stereo not drawn) | inactive

Row | SMILES | max dye-equivalent concentration
73 | C=CCOc1cccc(C2C(C(=O)c3ccc(C)o3)=C(O)C(=O)N2Cc2ccncc2)c1 (stereo not drawn) | inconclusive: 1.7 nM
74 | Clc1ccc2[nH]c3c(NCCCN4CCOCC4)ncnc3c2c1 | inconclusive: 6.2 nM
75 | O=C(NCCCn1ccnc1)c1cn(Cc2ccc(F)cc2)nn1 | inactive
76 | COc1cc(-c2nn3c(COc4ccccc4)nnc3s2)cc(OC)c1OC | inconclusive: 6.3 nM
77 | COc1ccc(-c2nc3cnc(N4CCOCC4)nc3n(Cc3cccs3)c2=O)cc1 | inconclusive: 2 nM
78 | CCOC(=O)CNC(=O)c1cnn2cccnc12 | active: 16 nM
79 | COC(=O)c1cc2sc(Cl)cc2n1CC(=O)N1CCCc2ccccc21 | inconclusive: 2.4 nM
80 | COc1cccc(Cn2c(=O)c(-c3cccs3)nc3cncnc32)c1 | inconclusive: 3.4 nM
81 | COc1ccc(N2CCN(CCNC(=O)c3cccn4c(=O)c5ccc(Cl)cc5nc34)CC2)cc1 | inconclusive: 4.8 nM
82 | O=C(COc1ccccc1)Nc1nc2ccccc2[nH]1 | inconclusive: 3.8 nM
83 | Nc1nc(CSc2n[nH]c(-c3ccccc3)n2)nc(Nc2ccccc2)n1 | inconclusive: 1.5 nM
84 | CC(=O)N1CN(CCCn2ccnc2)Cc2c1sc1c2CCCC1 | inconclusive: 1.3 nM
85 | O=C(NCCc1ccccc1)c1ccc(=O)oc1 | inconclusive: 2.5 nM
86 | CN1CCN(c2c3c(c(C#N)c4nc5ccccc5n24)CCCC3)CC1 | inconclusive: 5.9 nM
87 | CC(=O)c1cccc(S(=O)(=O)N2CCC(n3nnc4cc(F)ccc43)CC2)c1 | inconclusive: 1.3 nM
88 | COC(=O)c1[nH]c2ccc(C)cc2c1NC(=O)CN1CCN(C(=O)c2ccccc2)CC1 | inconclusive: 4.1 nM
89 | CCOC(=O)c1c(C)[nH]c2ccc(O)cc12 | inactive
90 | CCCCN(C)C(=O)C1CCN(Cc2ccccn2)CC1 | inconclusive: 1.1 nM
91 | COc1ccc(CNc2ncnc3ccc(-c4cccc(C#N)c4)cc23)c(OC)c1 | inactive
92 | CCc1nnc2c3cnn(-c4ccc(C)c(C)c4)c3ncn12 | inactive
93 | COc1ccc(CNc2ncnc3ccc(-c4c(C)noc4C)cc23)c(OC)c1 | inactive

From PubChem BioAssay AID590 (National Center for Advancing Translational Sciences (NCATS), 2007)
